Test results published in article doi:10.1101/2022.12.22.521673 (bioRxiv, 2022).
No constants are given. Whether binding was seen depends on the method and setting. In cells and extracts the contact can be indirect. These calls come from enrichment with a bait or labelling near it, and not all partners need be listed. Tags and fused reporters may be left off the sequences shown.

Sequences of proteins named here, by UniProt entry; tags and fusion partners are left off.
UniProt P04147: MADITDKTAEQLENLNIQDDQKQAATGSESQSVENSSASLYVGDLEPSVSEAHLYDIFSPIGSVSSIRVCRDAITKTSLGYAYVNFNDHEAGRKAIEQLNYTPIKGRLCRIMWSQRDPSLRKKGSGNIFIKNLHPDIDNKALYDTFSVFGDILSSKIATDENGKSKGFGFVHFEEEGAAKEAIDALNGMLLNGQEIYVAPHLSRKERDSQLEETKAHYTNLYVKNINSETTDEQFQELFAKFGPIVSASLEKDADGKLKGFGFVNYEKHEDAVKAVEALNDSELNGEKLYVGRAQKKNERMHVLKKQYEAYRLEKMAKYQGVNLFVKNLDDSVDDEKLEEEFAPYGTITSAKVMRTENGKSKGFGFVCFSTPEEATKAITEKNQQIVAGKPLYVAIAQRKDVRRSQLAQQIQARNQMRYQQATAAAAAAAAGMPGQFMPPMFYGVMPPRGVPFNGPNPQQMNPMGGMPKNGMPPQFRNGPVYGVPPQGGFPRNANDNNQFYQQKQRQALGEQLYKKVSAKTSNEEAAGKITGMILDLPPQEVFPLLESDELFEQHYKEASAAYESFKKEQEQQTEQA

Target: T1, Rim4-FLAG (S. cerevisiae) (UniProt P38741)
T1 sequence: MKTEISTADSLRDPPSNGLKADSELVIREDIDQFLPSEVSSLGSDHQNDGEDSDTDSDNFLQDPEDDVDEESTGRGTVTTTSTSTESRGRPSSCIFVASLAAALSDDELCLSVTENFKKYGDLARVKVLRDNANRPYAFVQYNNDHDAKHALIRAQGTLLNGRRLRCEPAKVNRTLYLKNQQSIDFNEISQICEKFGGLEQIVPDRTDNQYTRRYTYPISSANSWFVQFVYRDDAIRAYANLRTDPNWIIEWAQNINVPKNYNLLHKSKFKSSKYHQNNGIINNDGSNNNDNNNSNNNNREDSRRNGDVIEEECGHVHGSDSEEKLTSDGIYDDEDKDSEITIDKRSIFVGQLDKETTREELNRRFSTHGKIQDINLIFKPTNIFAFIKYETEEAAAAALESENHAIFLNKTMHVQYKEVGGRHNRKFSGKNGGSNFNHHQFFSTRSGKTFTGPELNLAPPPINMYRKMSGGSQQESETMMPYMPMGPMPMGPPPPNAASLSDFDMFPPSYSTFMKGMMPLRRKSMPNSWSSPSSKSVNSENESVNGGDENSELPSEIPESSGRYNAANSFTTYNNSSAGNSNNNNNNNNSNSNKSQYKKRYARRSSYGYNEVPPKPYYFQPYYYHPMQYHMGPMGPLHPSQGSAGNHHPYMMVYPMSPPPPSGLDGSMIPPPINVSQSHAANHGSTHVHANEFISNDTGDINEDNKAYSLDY
Assay: affinity purification with mass spectrometry

**Q.** For Pab1 (from UniProt P04147 1-577), which binding is on record?
**A.** binds
